From the supplement of paper PMC8728848
Some of the results follow.

Columns and labels:
Test in all cases: glycan array binding signal (z-score within array); higher = stronger binding
Settings in all cases: glycan notation: IUPAC condensed, linker removed
[1] = molecular target: Neu5Ac(a2-6)GlcNAc(b1-4)GlcNAc(b1-4)GlcNAc
Summary of the method: (§1)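 The binding signal is a Z-score computed within each array. Data were drawn from 3228 arrays in the Consortium for Functional Glycomics database, restricted to those with a known protein sequence. Scores were averaged over arrays of the same protein sequence at different concentrations or buffers, and over linkers, and negative values can be taken as non-binding.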

Neu5Ac(a2-8)Neu5Ac = molecular target: Neu5Ac(a2-8)Neu5Ac
Summary of the method: as §1

[2] = molecular target: Neu5Ac(a2-8)Neu5Ac(a2-3)Gal(b1-3)GalNAc(b1-4)[Neu5Ac(a2-3)]Gal(b1-4)Glc
Summary of the method: as §1

[3] = molecular target: Neu5Ac(a2-8)Neu5Ac(a2-3)Gal(b1-3)GalNAc(b1-4)[Neu5Ac(a2-8)Neu5Ac(a2-3)]Gal(b1-4)Glc
Summary of the method: as §1

[4] = molecular target: Neu5Ac(a2-8)Neu5Ac(a2-3)Gal(b1-4)Glc
Summary of the method: as §1

[5] = molecular target: Neu5Ac(a2-8)Neu5Ac(a2-3)Gal(b1-4)GlcNAc
Summary of the method: as §1

[6] = molecular target: Neu5Ac(a2-8)Neu5Ac(a2-3)[Gal(b1-3)GalNAc(b1-4)]Gal(b1-4)Glc
Summary of the method: as §1

[7] = molecular target: Neu5Ac(a2-8)Neu5Ac(a2-3)[GalNAc(b1-4)]Gal(b1-4)Glc
Summary of the method: as §1

[8] = molecular target: Neu5Ac(a2-8)Neu5Ac(a2-8)Neu5Ac
Summary of the method: as §1

[9] = molecular target: Neu5Ac(a2-8)Neu5Ac(a2-8)Neu5Ac(a2-3)Gal(b1-4)Glc
Summary of the method: as §1

[10] = molecular target: Neu5Ac(a2-8)Neu5Ac(a2-8)Neu5Ac(a2-3)[Gal(b1-3)GalNAc(b1-4)]Gal(b1-4)Glc
Summary of the method: as §1

[11] = molecular target: Neu5Ac(a2-8)Neu5Ac(a2-8)Neu5Ac(a2-3)[GalNAc(b1-4)]Gal(b1-4)Glc
Summary of the method: as §1

[12] = molecular target: Neu5Ac(a2-8)Neu5Ac(a2-8)Neu5Ac(a2-8)Neu5Ac(a2-3)[GalNAc(b1-4)]Gal(b1-4)Glc
Summary of the method: as §1

[13] = molecular target: Neu5Ac(a2-8)Neu5Gc(a2-3)Gal(b1-4)GlcNAc
Summary of the method: as §1

[14] = molecular target: Neu5Ac(b2-6)Gal(b1-4)GlcNAc
Summary of the method: as §1

Neu5Ac(b2-6)GalNAc = molecular target: Neu5Ac(b2-6)GalNAc
Summary of the method: as §1

[15] = molecular target: Neu5Ac9Ac(a2-3)Gal(b1-3)GlcNAc
Summary of the method: as §1

[16] = molecular target: Neu5Ac9Ac(a2-3)Gal(b1-4)GlcNAc
Summary of the method: as §1

[17] = molecular target: Neu5Ac9Ac(a2-6)Gal(b1-4)GlcNAc
Summary of the method: as §1

[18] = molecular target: Neu5Gc(a2-3)Gal(b1-3)GlcNAc
Summary of the method: as §1

[19] = molecular target: Neu5Gc(a2-3)Gal(b1-3)[Fuc(a1-4)]GlcNAc
Summary of the method: as §1

Neu5Gc(a2-3)Gal(b1-4)Glc = molecular target: Neu5Gc(a2-3)Gal(b1-4)Glc
Summary of the method: as §1

[20] = molecular target: Neu5Gc(a2-3)Gal(b1-4)GlcNAc
Summary of the method: as §1

[21] = molecular target: Neu5Gc(a2-3)Gal(b1-4)GlcNAc(b1-3)Gal(b1-4)GlcNAc(b1-2)Man(a1-3)[Neu5Gc(a2-3)Gal(b1-4)GlcNAc(b1-3)Gal(b1-4)GlcNAc(b1-2)Man(a1-6)]Man(b1-4)GlcNAc(b1-4)GlcNAc
Summary of the method: as §1

[22] = molecular target: Neu5Gc(a2-3)Gal(b1-4)[Fuc(a1-3)]GlcNAc
Summary of the method: as §1

[23] = molecular target: Neu5Gc(a2-6)Gal(b1-4)GlcNAc
Summary of the method: as §1

Neu5Gc(a2-6)GalNAc = molecular target: Neu5Gc(a2-6)GalNAc
Summary of the method: as §1

[24] = molecular target: Neu5Gc(a2-8)Neu5Ac(a2-3)Gal(b1-4)GlcNAc
Summary of the method: as §1

[25] = molecular target: Neu5Gc(a2-8)Neu5Gc(a2-3)Gal(b1-4)GlcNAc
Summary of the method: as §1

[26] = molecular target: Neu5Gc(a2-8)Neu5Gc(a2-3)Gal(b1-4)GlcNAc(b1-3)Gal(b1-4)GlcNAc
Summary of the method: as §1

[27] = molecular target: Neu5Gc(a2-8)Neu5Gc(a2-6)Gal(b1-4)GlcNAc
Summary of the method: as §1

[28] = molecular target: Neu5Gc(b2-6)Gal(b1-4)GlcNAc
Summary of the method: as §1

B1: cFel (Cyprinus carpio), P68512 (protein)
chain: LDCTVIDGNLKQIDAGSGSVVGVNNLNETFVLIDNVFTKISGSLKHFSVGPAGQLGVNTANNIFKYQSGGFVQLAGLLKQVDAGGDQIIAGVNMYDDIYCLNMDANNKWPSSNTPWVQINGKLKYYSCGPYSCWGVNSNDQIFIMKDVSSNVCSGSGSFINIPGLLSMIEVATDGSVFGVNSQGNLYQRTGVTRSKPDGTDWISMVACPNGHKHVSFDLGVLWLVCVDGSIRKCILTD
glycan array binding signal (z-score) [1]: 0.743 | glycan array binding signal (z-score) (Neu5Ac(a2-8)Neu5Ac): -0.089 | glycan array binding signal (z-score) [2]: -0.099 | glycan array binding signal (z-score) [3]: -0.344 | glycan array binding signal (z-score) [4]: 0.161 | glycan array binding signal (z-score) [5]: -0.444 | glycan array binding signal (z-score) [6]: 0.548 | glycan array binding signal (z-score) [7]: -0.006 | glycan array binding signal (z-score) [8]: 1.01 | glycan array binding signal (z-score) [9]: 0.979 | glycan array binding signal (z-score) [10]: 1.15 | glycan array binding signal (z-score) [11]: -0.16 | glycan array binding signal (z-score) [12]: -1.02 | glycan array binding signal (z-score) [13]: 2.02 | glycan array binding signal (z-score) [14]: 2.28 | glycan array binding signal (z-score) (Neu5Ac(b2-6)GalNAc): 0.244 | glycan array binding signal (z-score) [15]: 1.08 | glycan array binding signal (z-score) [16]: -0.301 | glycan array binding signal (z-score) [17]: -0.857 | glycan array binding signal (z-score) [18]: 2.89 | glycan array binding signal (z-score) [19]: -0.782 | glycan array binding signal (z-score) (Neu5Gc(a2-3)Gal(b1-4)Glc): 0.825 | glycan array binding signal (z-score) [20]: -0.514 | glycan array binding signal (z-score) [21]: 0.736 | glycan array binding signal (z-score) [22]: -0.862 | glycan array binding signal (z-score) [23]: -1.34 | glycan array binding signal (z-score) (Neu5Gc(a2-6)GalNAc): 0.828 | glycan array binding signal (z-score) [24]: -0.275 | glycan array binding signal (z-score) [25]: 0.265 | glycan array binding signal (z-score) [26]: 0.267 | glycan array binding signal (z-score) [27]: 2.13 | glycan array binding signal (z-score) [28]: -0.806
